In patent EP0450480B1 (The Administrators of The Tulane Educational Fund, priority 1990, dated 1991):
HELM strings list residues between dots; [ac] is acetyl, [am] amide, other brackets name non-standard units.

Assay: general procedure: Boc solid-phase peptide synthesis; benzhydrylamine HCl resin, about 0.55 meq NH2/g (Advanced ChemTech); diisopropylcarbodiimide/HOBt
Details: whole synthesis, analytical HPLC, scale of the general procedure 0.5 g resin (about 0.27 mmol)

Substance | final HPLC purity [%]
PEPTIDE1{[Mel].C.Y.[dW].K.V.C.T.[am]}$PEPTIDE1,PEPTIDE1,2:R3-7:R3$$$V2.0 | >95
PEPTIDE1{[Mel].F.C.F.[dW].K.T.C.T.[am]}$PEPTIDE1,PEPTIDE1,3:R3-8:R3$$$V2.0 | >92
PEPTIDE1{[Mel].[dF].C.F.[dW].K.T.C.T.[am]}$PEPTIDE1,PEPTIDE1,3:R3-8:R3$$$V2.0 | >92
PEPTIDE1{[Mel].[dF].C.Y.[dW].K.V.C.T.[am]}$PEPTIDE1,PEPTIDE1,3:R3-8:R3$$$V2.0 | >92
PEPTIDE1{[Mel].[dF].C.Y.[dW].K.V.C.W.[am]}$PEPTIDE1,PEPTIDE1,3:R3-8:R3$$$V2.0 | >92
